# Reference: PubChem BioAssay AID493246 (Drosophila RNAi Screening Center, 2011)
# Aim: 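Genes fly cells need to grow and stay alive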 (primary screen)
# Cell system: Drosophila Kc and S2R+ cells
# Knock-down reagent: long dsRNA against Drosophila genes
# Measured: 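Cell number per well after knock-down, printed as raw plate values; calls were based on per-plate z-scores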
# Direction: Kc cell number and S2R+ cell number: higher = more cells remaining
# Rule for the call: 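Active when the per-plate z-score of cell number is 3 or more in the direction of fewer cells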
# The screen tested about 21,000 reagents; shown is an unselected part of those that have a named target and a result. Of all reagents, 429 (2%) are marked active. 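Values are raw and not normalised between plates; calls rest on per-plate z-scores that were not deposited.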 A number with no mark means an inactive call. Names joined by + are all predicted targets of the reagent. The record does not give: the amount of reagent, the time to read-out.
The opening 2 entries, to show the layout:
gene,PubChem SID,"Kc cell number, rep 1","Kc cell number, rep 2","S2R+ cell number, rep 1","S2R+ cell number, rep 2"
Cpn (Calphotin),SID104196405,1.69e6,1.75e6,1.40e6,1.48e6
Usp15-31 (Ubiquitin specific protease 15/31),SID104184218,1.61e6,1.71e6,1.02e6,1.34e6

The list itself, from the start:
gene,PubChem SID,"Kc cell number, rep 1","Kc cell number, rep 2","S2R+ cell number, rep 1","S2R+ cell number, rep 2"
Cpn (Calphotin),SID104196405,1.69e6,1.75e6,1.40e6,1.48e6
Usp15-31 (Ubiquitin specific protease 15/31),SID104184218,1.61e6,1.71e6,1.02e6,1.34e6
Usp15-31 (Ubiquitin specific protease 15/31),SID104184324,1.39e6,1.45e6,1.13e6,1.37e6
PolA2 (DNA polymerase alpha subunit 2),SID104196433,1.59e6,1.65e6,1.09e6,1.15e6
ND-51 (NADH dehydrogenase (ubiquinone) 51 kDa subunit),SID104182937,1.10e6,1.19e6,4.00e5,6.34e5
eEF1delta (eukaryotic translation elongation factor 1 delta),SID104182582,1.24e6,1.34e6,1.06e6,1.15e6
TBC1D5 (TBC1 domain family member 5),SID104196213,1.75e6,1.86e6,1.49e6,1.61e6
CG42362 + CG42363,SID104184057,1.23e6,1.16e6,9.93e5,8.90e5
CG15800,SID104184063,1.49e6,1.55e6,1.36e6,1.48e6
CG7530,SID104196047,1.63e6,1.68e6,1.38e6,1.38e6
CG16868,SID104186425,1.24e6,1.32e6,1.13e6,1.16e6
CG14160,SID104189953,1.62e6,1.61e6,1.42e6,1.54e6
CG2187,SID104195217,1.59e6,1.51e6,9.79e5,1.07e6
CG33673,SID104179876,1.64e6,1.66e6,1.12e6,1.28e6
"Alg3 (ALG3, alpha-1,3- mannosyltransferase)",SID104184492,1.23e6,1.28e6,1.06e6,1.18e6
CG4741,SID104184277,1.49e6,1.58e6,1.38e6,1.52e6
Msh6,SID104190551,1.32e6,1.42e6,1.33e6,1.24e6
CG16986,SID104188294,1.37e6,1.33e6,1.00e6,1.28e6
CG6071,SID104190371,1.45e6,1.51e6,1.17e6,1.34e6
CG8785,SID104187058,1.50e6,1.54e6,1.12e6,1.13e6
Rac1,SID104188480,1.43e6,1.27e6,1.08e6,1.26e6
CG18281,SID104191534,1.60e6,1.64e6,1.30e6,1.40e6
mtt (mangetout),SID104184898,1.51e6,1.60e6,7.61e5,9.16e5
mtt (mangetout),SID104184899,1.56e6,1.71e6,9.21e5,1.10e6
mtt (mangetout),SID104186545,1.58e6,1.69e6,1.28e6,1.43e6
mtt (mangetout),SID104187027,1.68e6,1.78e6,1.20e6,1.38e6
COX5BL (Cytochrome c oxidase subunit 5B-like),SID104181915,1.56e6,1.34e6,1.13e6,1.25e6
"TyrRS-m (Tyrosyl-tRNA synthetase, mitochondrial)",SID104184078,1.31e6,1.39e6,1.03e6,1.05e6
CG7990,SID104199088,1.21e6,1.44e6,1.10e6,1.11e6
CG7990,SID104199861,1.60e6,1.64e6,9.90e5,1.09e6
CG11362,SID104183898,1.57e6,1.67e6,1.22e6,1.42e6
Gle1 (Gle1 RNA export mediator),SID104186277,1.31e6,1.38e6,1.00e6,1.16e6
CG31445,SID104194235,5.20e5,,7.60e5,
Mob2,SID104188909,1.49e6,1.58e6,8.68e5,1.01e6
Mob2,SID104188911,1.42e6,1.55e6,1.12e6,1.27e6
Mob2,SID104189648,1.37e6,1.47e6,1.05e6,9.43e5
CG17486,SID104187544,1.34e6,1.39e6,1.26e6,1.23e6
p38b (p38b MAP kinase),SID104183378,1.51e6,1.62e6,1.24e6,1.31e6
Vha36-2 (Vacuolar H[+] ATPase 36kD subunit 2),SID104186086,1.37e6,1.48e6,1.21e6,1.29e6
CG6012,SID104182713,1.65e6,1.65e6,1.36e6,1.49e6
alpha-Est8 (alpha-Esterase-8),SID104192412,1.49e6,1.65e6,1.24e6,1.33e6
CG7326,SID104199829,1.62e6,1.64e6,1.10e6,1.20e6
stet (stem cell tumor),SID104188038,1.39e6,1.30e6,9.86e5,1.16e6
stet (stem cell tumor),SID104188075,1.50e6,1.46e6,8.46e5,1.08e6
Jon99Fii + Jon99Cii + Jon99Ciii + 1 more,SID104195090,1.44e6,1.48e6,1.01e6,1.10e6
snama (something that sticks like glue),SID104183841,1.26e6,1.36e6,1.10e6,1.13e6
SCCRO (Squamous cell carcinoma-related oncogene),SID104190636,1.54e6,1.57e6,1.16e6,1.49e6
Rcd4 (Reduction in Cnn dots 4),SID104182389,1.55e6,1.60e6,1.32e6,1.42e6
bowl,SID104180597,1.42e6,1.39e6,1.22e6,1.22e6
CG30345,SID104184936,1.40e6,1.50e6,9.40e5,1.01e6
Chs2 (Chitin synthase 2),SID104191622,1.51e6,1.51e6,1.31e6,1.36e6
CG18538,SID104186557,1.54e6,1.56e6,1.11e6,1.18e6
CG17593,SID104180296,1.91e6,1.59e6,1.19e6,1.34e6
CG10433,SID104183860,1.39e6,1.49e6,1.24e6,1.27e6
CG33116,SID104181837,1.37e6,1.55e6,1.19e6,1.24e6
CG13385,SID104182051,1.67e6,1.69e6,1.24e6,1.45e6
Sdhaf3 (Succinate dehydrogenase assembly factor 3),SID104194812,1.45e6,1.41e6,9.52e5,1.10e6
Mms19,SID104191980,1.63e6,1.71e6,1.35e6,1.35e6
ytr (yantar),SID104184098,1.38e6,1.45e6,1.13e6,1.16e6
nAChRalpha1 (nicotinic Acetylcholine Receptor alpha1),SID104193456,1.07e6,1.30e6,1.10e6,1.04e6
nAChRalpha1 (nicotinic Acetylcholine Receptor alpha1),SID104193462,1.25e6 (active),1.20e6,6.68e5,7.25e5
nAChRalpha1 (nicotinic Acetylcholine Receptor alpha1),SID104193464,1.35e6,1.55e6,1.14e6,8.75e5
nAChRalpha1 (nicotinic Acetylcholine Receptor alpha1),SID104196800,1.60e6,1.83e6,1.02e6,1.16e6
CG12857,SID104185989,1.47e6,1.52e6,1.19e6,1.29e6
Brd8 (Bromodomain containing 8),SID104194658,4.68e5,,7.91e5,
CG13654,SID104194446,1.43e6,1.43e6,9.77e5,1.07e6
Crtp (Caldesmon-related protein),SID104184396,1.66e6,1.72e6,1.24e6,1.38e6
tio (tiptop),SID104183531,1.49e6,1.63e6,1.36e6,3.16e5
noi (noisette),SID104192175,1.18e6 (active),1.30e6,6.71e5,7.60e5
CG1231,SID104188059,1.60e6,9.88e5,1.06e6,1.16e6
CG14439,SID104197723,1.47e6,1.47e6,1.03e6,1.14e6
T48 (Transcript 48),SID104196670,1.51e6,1.54e6,1.03e6,1.13e6
CG17109,SID104194964,1.42e6,1.49e6,1.01e6,1.09e6
Atac1 (Ada2a-containing complex component 1),SID104182947,1.78e6,1.76e6,1.14e6,1.25e6
CG17108,SID104182368,1.55e6,1.57e6,1.16e6,1.29e6
